Measurements as given in article PMC10637963.
Results are given in words; binding and its absence hold for the method and conditions named. Binding seen in cells or lysates may run through a third protein. Here binding means that the protein was enriched with, or labelled near, the bait; the list need not be complete.

Protein sequences, listed by entry. Tags and fused reporters are not part of them.
UniProt O54851: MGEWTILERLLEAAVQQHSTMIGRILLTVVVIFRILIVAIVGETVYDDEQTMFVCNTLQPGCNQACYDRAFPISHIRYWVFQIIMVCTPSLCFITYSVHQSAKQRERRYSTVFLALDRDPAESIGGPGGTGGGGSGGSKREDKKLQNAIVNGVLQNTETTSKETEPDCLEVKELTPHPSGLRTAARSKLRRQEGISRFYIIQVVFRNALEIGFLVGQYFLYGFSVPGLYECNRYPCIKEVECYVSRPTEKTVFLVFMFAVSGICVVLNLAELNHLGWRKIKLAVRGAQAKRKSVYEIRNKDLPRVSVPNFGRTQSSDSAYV
UniProt Q9Y6I9: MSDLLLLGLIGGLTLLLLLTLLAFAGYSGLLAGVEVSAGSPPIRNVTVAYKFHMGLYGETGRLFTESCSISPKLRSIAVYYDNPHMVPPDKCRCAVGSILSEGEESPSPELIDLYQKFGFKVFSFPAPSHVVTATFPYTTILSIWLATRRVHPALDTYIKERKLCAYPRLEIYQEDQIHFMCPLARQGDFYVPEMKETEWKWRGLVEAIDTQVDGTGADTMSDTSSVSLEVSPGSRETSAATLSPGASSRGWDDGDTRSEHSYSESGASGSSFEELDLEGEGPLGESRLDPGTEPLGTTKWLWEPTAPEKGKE

Target: Cx36-EGFP (connexin 36 with a C-terminal EGFP tag) (UniProt O54851)
Experiment: proximity labelling; BioID: HEK293T cotransfected with Cx36-EGFP, Cx36-SNAP and V5-dGBP-TurboID (GFP nanobody directs TurboID to Cx36-EGFP); 50 uM biotin for 3 h; lysis in 1% Triton X-100; streptavidin beads overnight at 4 C, washes incl. 2% SDS; eluates read by mass spectrometry and Western blot

| binding | Substance |
| --- | --- |
| binds | Cx36-SNAP (connexin 36 with a C-terminal SNAP-tag) (from UniProt O54851 1-321) |
| binds | testis-expressed protein 264 (Tex264) (from UniProt Q9Y6I9 1-313) |
